Data taken from publication PMC7493855.
Results are given in words; binding and its absence hold for the method and conditions named. Binding seen in cells or lysates may run through a third protein. Some entries that bind do so weakly or less than the wild type.

The chains behind the UniProt entries cited, without tags or fusion partners.
UniProt Q3URK3: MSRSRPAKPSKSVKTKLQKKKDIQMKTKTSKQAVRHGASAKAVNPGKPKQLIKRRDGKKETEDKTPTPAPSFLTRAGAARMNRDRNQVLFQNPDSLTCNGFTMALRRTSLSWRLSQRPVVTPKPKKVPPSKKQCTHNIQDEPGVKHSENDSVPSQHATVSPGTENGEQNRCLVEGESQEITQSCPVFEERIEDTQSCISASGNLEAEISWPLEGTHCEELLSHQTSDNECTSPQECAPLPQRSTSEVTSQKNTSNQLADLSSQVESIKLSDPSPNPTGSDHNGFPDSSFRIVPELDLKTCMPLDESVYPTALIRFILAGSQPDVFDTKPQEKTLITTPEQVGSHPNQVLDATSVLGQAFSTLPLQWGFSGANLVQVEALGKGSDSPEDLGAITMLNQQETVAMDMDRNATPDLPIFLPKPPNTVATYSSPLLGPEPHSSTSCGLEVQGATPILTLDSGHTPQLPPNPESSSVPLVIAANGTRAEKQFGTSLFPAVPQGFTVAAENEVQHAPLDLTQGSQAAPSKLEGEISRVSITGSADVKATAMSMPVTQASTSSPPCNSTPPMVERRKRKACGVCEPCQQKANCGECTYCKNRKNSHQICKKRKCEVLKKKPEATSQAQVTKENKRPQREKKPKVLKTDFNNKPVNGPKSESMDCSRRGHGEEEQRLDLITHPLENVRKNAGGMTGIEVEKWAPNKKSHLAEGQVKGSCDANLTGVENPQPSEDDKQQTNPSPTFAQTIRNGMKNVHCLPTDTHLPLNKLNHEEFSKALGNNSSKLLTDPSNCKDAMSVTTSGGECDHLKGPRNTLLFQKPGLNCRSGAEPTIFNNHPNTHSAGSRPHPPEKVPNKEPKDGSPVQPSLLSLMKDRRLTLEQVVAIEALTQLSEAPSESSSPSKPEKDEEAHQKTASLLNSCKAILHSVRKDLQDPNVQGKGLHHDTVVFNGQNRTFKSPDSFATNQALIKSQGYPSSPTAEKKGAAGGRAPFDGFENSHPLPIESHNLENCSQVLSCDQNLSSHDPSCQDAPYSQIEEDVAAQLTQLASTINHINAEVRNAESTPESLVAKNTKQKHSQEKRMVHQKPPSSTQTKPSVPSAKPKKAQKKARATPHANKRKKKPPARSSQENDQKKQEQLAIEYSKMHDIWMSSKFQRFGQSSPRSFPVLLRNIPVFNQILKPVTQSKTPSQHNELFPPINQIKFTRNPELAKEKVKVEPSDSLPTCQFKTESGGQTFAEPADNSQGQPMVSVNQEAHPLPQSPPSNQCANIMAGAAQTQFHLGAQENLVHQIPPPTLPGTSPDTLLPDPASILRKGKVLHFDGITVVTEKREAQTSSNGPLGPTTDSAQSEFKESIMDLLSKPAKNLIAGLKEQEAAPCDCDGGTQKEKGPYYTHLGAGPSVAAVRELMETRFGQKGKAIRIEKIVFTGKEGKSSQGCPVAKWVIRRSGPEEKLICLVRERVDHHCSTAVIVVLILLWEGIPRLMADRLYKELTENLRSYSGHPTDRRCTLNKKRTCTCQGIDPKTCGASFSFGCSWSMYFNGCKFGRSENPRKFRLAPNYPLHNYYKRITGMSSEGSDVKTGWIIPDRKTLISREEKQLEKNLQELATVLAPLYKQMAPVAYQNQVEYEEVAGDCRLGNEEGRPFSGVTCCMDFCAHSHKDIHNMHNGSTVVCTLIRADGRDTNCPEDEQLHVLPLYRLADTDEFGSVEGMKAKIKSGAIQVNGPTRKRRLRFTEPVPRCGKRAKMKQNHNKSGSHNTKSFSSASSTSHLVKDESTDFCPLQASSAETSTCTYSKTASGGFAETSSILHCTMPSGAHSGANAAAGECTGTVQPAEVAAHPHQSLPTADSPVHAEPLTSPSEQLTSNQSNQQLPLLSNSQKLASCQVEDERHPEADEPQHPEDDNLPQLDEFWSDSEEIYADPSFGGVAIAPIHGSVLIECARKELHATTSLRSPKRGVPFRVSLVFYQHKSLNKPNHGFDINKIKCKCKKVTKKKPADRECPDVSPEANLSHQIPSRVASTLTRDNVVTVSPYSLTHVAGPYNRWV
UniProt O09106: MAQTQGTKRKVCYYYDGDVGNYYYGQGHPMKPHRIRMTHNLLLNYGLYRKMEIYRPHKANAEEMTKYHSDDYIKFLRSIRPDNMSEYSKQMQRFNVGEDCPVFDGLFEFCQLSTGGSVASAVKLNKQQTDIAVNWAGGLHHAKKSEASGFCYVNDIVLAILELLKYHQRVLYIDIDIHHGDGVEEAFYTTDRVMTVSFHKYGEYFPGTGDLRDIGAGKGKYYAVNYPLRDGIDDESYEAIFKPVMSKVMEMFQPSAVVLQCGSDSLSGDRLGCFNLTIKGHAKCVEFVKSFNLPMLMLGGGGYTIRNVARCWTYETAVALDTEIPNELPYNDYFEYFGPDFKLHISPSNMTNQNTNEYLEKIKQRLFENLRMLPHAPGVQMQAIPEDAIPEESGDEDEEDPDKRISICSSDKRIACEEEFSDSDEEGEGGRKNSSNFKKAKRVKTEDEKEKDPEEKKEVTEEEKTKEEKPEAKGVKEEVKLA

Columns and labels:
[1] = biological target: T1, RFP-Olig2 (UniProt Q9EQW6); assay: co-IP; reciprocal: Hela cells co-transfected with GFP-TET1 and Olig2; IP with two antibodies against Olig2, blot with GFP antibody
T1 sequence: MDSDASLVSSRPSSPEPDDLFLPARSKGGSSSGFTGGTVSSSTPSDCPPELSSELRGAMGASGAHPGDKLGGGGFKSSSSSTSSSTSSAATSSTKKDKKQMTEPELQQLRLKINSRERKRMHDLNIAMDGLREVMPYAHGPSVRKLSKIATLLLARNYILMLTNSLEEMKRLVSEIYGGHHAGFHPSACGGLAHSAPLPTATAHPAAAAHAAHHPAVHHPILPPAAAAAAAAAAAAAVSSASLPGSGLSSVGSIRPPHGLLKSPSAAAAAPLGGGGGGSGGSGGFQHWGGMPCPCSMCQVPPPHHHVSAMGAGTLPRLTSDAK

[2] = biological target: TET1 (ten-eleven translocation 1), endogenous in oligodendrocyte lineage cells (mouse (endogenous in primary mouse OPCs and OLs)) (UniProt Q3URK3); assay: co-IP; IP of endogenous TET1 from lysates of mouse OPCs and OLs, Western blot with Olig2 and HDAC1 antibodies; normal IgG as control

Row | binding [1] | binding [2] | Substance
1 | binds |  | GFP-TET1 (from UniProt Q3URK3 1-2039)
2 |  | binds | histone deacetylases 1 (HDAC1), endogenous in oligodendrocyte lineage cells (from UniProt O09106 1-482)
